{"source": "PubChem BioAssay AID1259286 | Sanger Institute – 2017", "aim": "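Kinases whose loss adds to targeted drug killing of colorectal cancer cells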 (primary screen)", "cells": "NCI-H630 human colorectal cancer cells", "reagents": "siRNA pool against human genes", "conditions": "anchor drugs BYL719 at 1 µM, cetuximab at 5 µg/ml or trametinib at 10 nM, or DMSO vehicle alone; exposure time not given", "detection": "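Replicate-averaged viability as a fraction of non-targeting control, knock-down-alone robust z-score, and per-drug synergy scores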", "direction": "viability z-score, knock-down alone: higher = more viable cells, weaker knock-down effect; viability vs control, knock-down alone: higher = more viable cells", "active means": "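Essential call: robust z-score of viability with siRNA alone lower than -3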", "meaning of the calls": "active = essential when knocked down alone; inactive = not essential alone", "note": "This is one part, drawn at random, of 794 reagents. Over the whole deposit, 17 (2.1%) were called active. 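Calls use knock-down alone only; synergy above 0.15 marked separately; viability seems capped at control level; exposure time not given.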 Entries without a mark were called inactive. Not all columns of the deposit are shown. The record does not give: the amount of reagent, the time to read-out."}
{"Gene": "MAPK6", "viability z-score, knock-down alone": 0.225, "viability vs control, knock-down alone (fraction of control)": 0.991}
{"Gene": "ITPK1", "viability z-score, knock-down alone": 0.464, "viability vs control, knock-down alone (fraction of control)": 1}
{"Gene": "GNAS", "viability z-score, knock-down alone": 0.464, "viability vs control, knock-down alone (fraction of control)": 1}
{"Gene": "MYLK2", "viability z-score, knock-down alone": 0.23, "viability vs control, knock-down alone (fraction of control)": 0.991}
{"Gene": "PXK", "viability z-score, knock-down alone": 0.097, "viability vs control, knock-down alone (fraction of control)": 0.986}
{"Gene": "BCOR", "viability z-score, knock-down alone": -0.288, "viability vs control, knock-down alone (fraction of control)": 0.972}
{"Gene": "MECOM", "viability z-score, knock-down alone": 0.464, "viability vs control, knock-down alone (fraction of control)": 1}
{"Gene": "FXR1", "viability z-score, knock-down alone": 0.464, "viability vs control, knock-down alone (fraction of control)": 1}
{"Gene": "PDIK1L", "viability z-score, knock-down alone": 0.464, "viability vs control, knock-down alone (fraction of control)": 1}
{"Gene": "SRC", "viability z-score, knock-down alone": -0.0696, "viability vs control, knock-down alone (fraction of control)": 0.98}
{"Gene": "PIP5K1C", "viability z-score, knock-down alone": "-3.57 (active)", "viability vs control, knock-down alone (fraction of control)": 0.847}
{"Gene": "PRKG1", "viability z-score, knock-down alone": -0.208, "viability vs control, knock-down alone (fraction of control)": 0.975}
{"Gene": "MAP2K4", "viability z-score, knock-down alone": 0.464, "viability vs control, knock-down alone (fraction of control)": 1}
{"Gene": "LRRK2", "viability z-score, knock-down alone": 0.464, "viability vs control, knock-down alone (fraction of control)": 1}
{"Gene": "STK40", "viability z-score, knock-down alone": -0.116, "viability vs control, knock-down alone (fraction of control)": 0.978}
{"Gene": "NME7", "viability z-score, knock-down alone": -2.62, "viability vs control, knock-down alone (fraction of control)": 0.883}
{"Gene": "CKM", "viability z-score, knock-down alone": -0.366, "viability vs control, knock-down alone (fraction of control)": 0.969}

Quoted from the entries so far, 5 entries:
{"Gene": "BCOR", "viability z-score, knock-down alone": -0.288, "viability vs control, knock-down alone (fraction of control)": 0.972}
{"Gene": "MECOM", "viability z-score, knock-down alone": 0.464, "viability vs control, knock-down alone (fraction of control)": 1}
{"Gene": "FXR1", "viability z-score, knock-down alone": 0.464, "viability vs control, knock-down alone (fraction of control)": 1}
{"Gene": "PDIK1L", "viability z-score, knock-down alone": 0.464, "viability vs control, knock-down alone (fraction of control)": 1}
{"Gene": "SRC", "viability z-score, knock-down alone": -0.0696, "viability vs control, knock-down alone (fraction of control)": 0.98}

The results go on:
{"Gene": "OXSR1", "viability z-score, knock-down alone": -0.851, "viability vs control, knock-down alone (fraction of control)": 0.95}
{"Gene": "DGKI", "viability z-score, knock-down alone": 0.119, "viability vs control, knock-down alone (fraction of control)": 0.987}
{"Gene": "DLG4", "viability z-score, knock-down alone": 0.0363, "viability vs control, knock-down alone (fraction of control)": 0.984}
{"Gene": "PNKP", "viability z-score, knock-down alone": 0.464, "viability vs control, knock-down alone (fraction of control)": 1}
{"Gene": "CDC42BPB", "viability z-score, knock-down alone": 0.464, "viability vs control, knock-down alone (fraction of control)": 1}
{"Gene": "ELP1", "viability z-score, knock-down alone": 0.464, "viability vs control, knock-down alone (fraction of control)": 1}
{"Gene": "ANKK1", "viability z-score, knock-down alone": 0.464, "viability vs control, knock-down alone (fraction of control)": 1}
{"Gene": "HK2", "viability z-score, knock-down alone": 0.464, "viability vs control, knock-down alone (fraction of control)": 1}
{"Gene": "JAK1", "viability z-score, knock-down alone": 0.464, "viability vs control, knock-down alone (fraction of control)": 1}
{"Gene": "NEK10", "viability z-score, knock-down alone": -0.147, "viability vs control, knock-down alone (fraction of control)": 0.977}
{"Gene": "AK1", "viability z-score, knock-down alone": 0.464, "viability vs control, knock-down alone (fraction of control)": 1}
{"Gene": "GRK7", "viability z-score, knock-down alone": 0.456, "viability vs control, knock-down alone (fraction of control)": 1}
{"Gene": "NME5", "viability z-score, knock-down alone": 0.464, "viability vs control, knock-down alone (fraction of control)": 1}
{"Gene": "DDR1", "viability z-score, knock-down alone": 0.464, "viability vs control, knock-down alone (fraction of control)": 1}
{"Gene": "DGKH", "viability z-score, knock-down alone": 0.464, "viability vs control, knock-down alone (fraction of control)": 1}
{"Gene": "CLK3", "viability z-score, knock-down alone": 0.464, "viability vs control, knock-down alone (fraction of control)": 1}
{"Gene": "PCBP1", "viability z-score, knock-down alone": -0.376, "viability vs control, knock-down alone (fraction of control)": 0.968}
{"Gene": "MAST4", "viability z-score, knock-down alone": 0.464, "viability vs control, knock-down alone (fraction of control)": 1}
{"Gene": "DTYMK", "viability z-score, knock-down alone": 0.464, "viability vs control, knock-down alone (fraction of control)": 1}
